{"source": "patent US6664372B1", "about": "(The Scripps Research Institute, priority 1996, dated 2003)", "test": "general procedure: solution-phase peptide synthesis; MeO-PEG soluble polymer support (polyethylene glycol monomethyl ether); pentafluorophenyl carbamates of Boc-alkylhydrazines, DMAP", "data": [{"substance": "Tyr^a-Gly^a-Gly^a-Phe^a-Leu^a-Boc", "values": [{"measurement": "step yield", "setting": "late stage modification step, from 15, trifluoroacetate", "value": 90.7, "unit": "%"}, {"measurement": "isolated yield", "setting": "whole synthesis, overall from 13, scale of the general procedure 38.0 μmol, trifluoroacetate", "value": 56.7, "unit": "%"}]}, {"substance": "(O-Benzyl)Tyr^a-Gly^a-Gly^a-Phe^a-Leu^a-Boc", "values": [{"measurement": "crude yield", "setting": "whole synthesis, from 13, scale 38.0 μmol, trifluoroacetate", "value": 62.4, "unit": "%"}]}]}
